Measurements from publication doi:10.1101/099465.
These are yes or no findings as the source states them, for the method shown. Binding seen in cells or lysates may run through a third protein. Some entries that bind do so weakly or less than the wild type.

Chains of the proteins cited; added tags and fusions are not shown. Lines headed by an entry give the natural chain unless they say otherwise; changes in a name come on top.
UniProt P17301: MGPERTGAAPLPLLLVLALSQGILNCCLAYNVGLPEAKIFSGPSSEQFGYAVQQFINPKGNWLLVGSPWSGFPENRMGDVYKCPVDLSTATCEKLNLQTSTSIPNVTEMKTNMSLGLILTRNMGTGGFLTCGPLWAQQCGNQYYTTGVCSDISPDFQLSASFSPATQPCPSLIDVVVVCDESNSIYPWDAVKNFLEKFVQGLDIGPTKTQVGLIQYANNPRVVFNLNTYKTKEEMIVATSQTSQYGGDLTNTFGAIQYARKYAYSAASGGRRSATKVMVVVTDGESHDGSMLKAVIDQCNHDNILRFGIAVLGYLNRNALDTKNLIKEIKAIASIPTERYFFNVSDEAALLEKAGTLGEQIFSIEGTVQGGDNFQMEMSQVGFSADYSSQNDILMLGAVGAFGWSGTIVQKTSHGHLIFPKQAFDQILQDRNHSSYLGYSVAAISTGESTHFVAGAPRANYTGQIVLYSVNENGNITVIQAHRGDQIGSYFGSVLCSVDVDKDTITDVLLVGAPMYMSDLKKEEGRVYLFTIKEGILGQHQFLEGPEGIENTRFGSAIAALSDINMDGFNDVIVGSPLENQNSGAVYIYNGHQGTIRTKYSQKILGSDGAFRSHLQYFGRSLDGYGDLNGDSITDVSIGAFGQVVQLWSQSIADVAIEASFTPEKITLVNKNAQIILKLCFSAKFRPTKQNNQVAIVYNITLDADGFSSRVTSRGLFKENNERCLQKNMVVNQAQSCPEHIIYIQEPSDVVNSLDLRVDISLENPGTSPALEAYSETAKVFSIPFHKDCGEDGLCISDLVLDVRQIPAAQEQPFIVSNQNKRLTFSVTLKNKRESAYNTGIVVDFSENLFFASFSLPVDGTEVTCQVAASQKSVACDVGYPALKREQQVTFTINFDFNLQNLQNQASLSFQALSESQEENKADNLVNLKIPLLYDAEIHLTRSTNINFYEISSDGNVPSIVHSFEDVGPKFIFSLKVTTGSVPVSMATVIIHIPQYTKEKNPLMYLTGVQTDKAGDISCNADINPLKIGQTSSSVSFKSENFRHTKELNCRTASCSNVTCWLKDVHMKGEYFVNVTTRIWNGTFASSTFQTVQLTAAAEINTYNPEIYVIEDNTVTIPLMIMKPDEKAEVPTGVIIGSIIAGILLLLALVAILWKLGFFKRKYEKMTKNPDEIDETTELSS
UniProt P05556: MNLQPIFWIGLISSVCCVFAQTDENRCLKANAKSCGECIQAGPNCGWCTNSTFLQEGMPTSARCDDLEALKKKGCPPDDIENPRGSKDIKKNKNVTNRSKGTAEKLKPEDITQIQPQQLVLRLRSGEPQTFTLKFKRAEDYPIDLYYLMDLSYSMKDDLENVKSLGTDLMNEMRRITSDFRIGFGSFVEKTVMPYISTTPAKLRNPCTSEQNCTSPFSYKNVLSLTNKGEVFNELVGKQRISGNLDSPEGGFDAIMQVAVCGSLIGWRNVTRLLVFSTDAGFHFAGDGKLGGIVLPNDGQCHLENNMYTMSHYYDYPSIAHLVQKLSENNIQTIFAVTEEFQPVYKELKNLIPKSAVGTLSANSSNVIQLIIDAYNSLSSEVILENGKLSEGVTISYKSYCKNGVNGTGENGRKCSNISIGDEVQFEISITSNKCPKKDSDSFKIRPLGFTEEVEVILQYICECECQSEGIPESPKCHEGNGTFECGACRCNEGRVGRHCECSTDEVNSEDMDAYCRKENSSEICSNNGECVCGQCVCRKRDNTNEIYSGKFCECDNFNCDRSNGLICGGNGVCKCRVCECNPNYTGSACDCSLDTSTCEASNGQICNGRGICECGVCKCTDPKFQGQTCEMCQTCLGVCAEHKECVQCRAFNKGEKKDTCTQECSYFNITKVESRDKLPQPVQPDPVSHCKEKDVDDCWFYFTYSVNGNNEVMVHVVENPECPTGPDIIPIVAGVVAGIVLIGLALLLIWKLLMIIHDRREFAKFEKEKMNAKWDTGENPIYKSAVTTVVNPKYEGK
UniProt P61073: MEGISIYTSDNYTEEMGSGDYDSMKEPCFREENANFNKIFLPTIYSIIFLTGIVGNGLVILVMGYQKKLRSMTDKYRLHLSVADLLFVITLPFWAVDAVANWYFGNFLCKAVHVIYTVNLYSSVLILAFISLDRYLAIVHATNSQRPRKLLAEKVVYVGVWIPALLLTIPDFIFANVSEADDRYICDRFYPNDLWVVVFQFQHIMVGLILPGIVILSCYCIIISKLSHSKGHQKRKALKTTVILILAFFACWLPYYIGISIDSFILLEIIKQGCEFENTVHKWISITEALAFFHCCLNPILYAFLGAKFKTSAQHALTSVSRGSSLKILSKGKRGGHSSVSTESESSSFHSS

Target: integrin α2β1 (human (endogenous in CAFs)) (UniProt P17301+P05556)
Test: proximity ligation

In the case of “CXCR4 (from UniProt P61073 1-352) (receptor)”, the binding is reported as “binds”.
